For this data set, the system named is BsmFI. The experiment in a line: enzyme reaction in vitro. The note with it: 5' amino-C6 biotinylated (NHS-LC-biotin) on SEQ 1; rCutSmart buffer, 37 C, 40 min; stem1 digested on beads, smaller fragments on denaturing gel; purified recombinant protein; protein details: NEB R0572L.

Construct, isoform or probe ends are uncertain for at least one entry.

Turning to “TTTTTTATTATATTACGCTAATAGCATTATATCATGTTAACGCAATGTCCCATATCGCTA / TAGCGATATGGGACATTGCGTTAACATGATATAATGCTATTAGCGTAATATAAT [TIIS stem1 / stem1 comp duplex]”, the “activity on this sequence” value was “active”.
